Measured data: PubChem BioAssay AID743121 (NCATS, 2013)

- Test: 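Genes whose silencing strengthens cell killing by camptothecin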 (primary screen)
- Cells: MDA-MB-231 cells, a human breast cancer line
- Reagents: single siRNA against human genes, 20 nM siRNA (0.8 pmol per well)
- Duration: 120 h (drug added 48 h after transfection, read 72 h later)
- Treatment: camptothecin 20 nM (about EC30) for 72 h; vehicle 0.1% DMSO in parallel plates
- Measurement: 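Cell viability by ATP luminescence (CellTiter-Glo) as % of non-targeting siRNA wells, and the log2 ratio of viability without drug over viability with camptothecin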
- Reading the numbers: log2 vehicle/camptothecin viability: higher = stronger sensitisation to camptothecin
- Hit rule: 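Each gene scored by redundant siRNA activity (RSA) over its individual siRNA ratios; a gene is called active at p < 0.001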
Shown is a random part of about 26,000 reagents tested. Of all reagents, 167 (0.63%) got an active call. 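Calls are per gene from RSA p-values that are not deposited; an individual active-marked siRNA can sensitise only weakly.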 Reagents against one gene are numbered here. Further read-outs or replicates are left out here.

The opening 2 records, to show the layout:
gene knocked down | reagent no. | log2 vehicle/camptothecin viability | outcome
EARS2 | 1 | -0.449 | inactive
EARS2 | 2 | -0.0347 | inactive

The list itself, repeating the preview:
gene knocked down | reagent no. | log2 vehicle/camptothecin viability | outcome
EARS2 | 1 | -0.449 | inactive
EARS2 | 2 | -0.0347 | inactive
EARS2 | 3 | 0.347 | inactive
EARS2 | 4 | -0.241 | inactive
BRIP1 | 1 | 0.19 | inactive
BRIP1 | 2 | -0.206 | inactive
BRIP1 | 3 | 0.14 | inactive
BRIP1 | 4 | -0.165 | inactive
CD226 | 1 | 0.113 | inactive
CD226 | 2 | -0.0822 | inactive
CD226 | 3 | -0.342 | inactive
CD226 | 4 | -0.632 | inactive
RASD2 | 1 | -0.182 | inactive
RASD2 | 2 | -0.125 | inactive
RASD2 | 3 | 1.04 | inactive
RASD2 | 4 | -0.482 | inactive
CD33 | 1 | -0.465 | inactive
CD33 | 2 | 0.815 | inactive
CD33 | 3 | 0.395 | inactive
CD33 | 4 | -0.595 | inactive
FPR1 | 1 | 0.139 | inactive
FPR1 | 2 | 0.188 | inactive
FPR1 | 3 | -0.364 | inactive
FPR1 | 4 | -0.427 | inactive
OR51E1 | 1 | -0.315 | inactive
OR51E1 | 2 | 0.0796 | inactive
OR51E1 | 3 | -0.0934 | inactive
OR51E1 | 4 | -0.634 | inactive
FOXK2 | 1 | 0.0328 | inactive
FOXK2 | 2 | -0.000115 | inactive
FOXK2 | 3 | -0.106 | inactive
FOXK2 | 4 | 0.0312 | inactive
PLEKHM2 | 1 | -0.00395 | inactive
PLEKHM2 | 2 | -0.459 | inactive
PLEKHM2 | 3 | -0.2 | inactive
PLEKHM2 | 4 | 0.185 | inactive
PHF8 | 1 | -0.314 | inactive
PHF8 | 2 | -0.705 | inactive
PHF8 | 3 | -0.0846 | inactive
BAZ2B | 1 | 1.21 | inactive
BAZ2B | 2 | -0.464 | inactive
BAZ2B | 3 | 0.222 | inactive
BAZ2B | 4 | 0.138 | inactive
PANK2 | 1 | -0.0183 | inactive
PANK2 | 2 | -0.491 | inactive
PANK2 | 3 | -0.426 | inactive
PANK2 | 4 | -0.712 | inactive
GPR63 | 1 | -0.105 | inactive
GPR63 | 2 | 0.537 | inactive
GPR63 | 3 | -0.19 | inactive
GPR63 | 4 | -0.364 | inactive
GLI1 | 1 | -0.137 | inactive
GLI1 | 2 | -0.683 | inactive
GLI1 | 3 | -0.488 | inactive
GLI1 | 4 | -0.176 | inactive
UBE2A | 1 | -0.197 | inactive
UBE2A | 2 | -0.208 | inactive
UBE2A | 3 | -0.222 | inactive
UBE2A | 4 | 0.0343 | inactive
MTHFR | 1 | -0.119 | inactive
MTHFR | 2 | -0.0744 | inactive
MTHFR | 3 | -0.0495 | inactive
CKMT2 | 1 | 0.0123 | inactive
CKMT2 | 2 | -0.231 | inactive
CKMT2 | 3 | -0.00407 | inactive
CKMT2 | 4 | -0.699 | inactive
MED13L | 1 | -0.477 | inactive
MED13L | 2 | 0.0198 | inactive
MED13L | 3 | -0.324 | inactive
MED13L | 4 | 0.373 | inactive
